# From PubChem BioAssay AID1439 (NMMLSC, 2008)
# Amino acid sequences for entries named in this document (tags omitted).
# UniProt P09471, whole entry, looked up: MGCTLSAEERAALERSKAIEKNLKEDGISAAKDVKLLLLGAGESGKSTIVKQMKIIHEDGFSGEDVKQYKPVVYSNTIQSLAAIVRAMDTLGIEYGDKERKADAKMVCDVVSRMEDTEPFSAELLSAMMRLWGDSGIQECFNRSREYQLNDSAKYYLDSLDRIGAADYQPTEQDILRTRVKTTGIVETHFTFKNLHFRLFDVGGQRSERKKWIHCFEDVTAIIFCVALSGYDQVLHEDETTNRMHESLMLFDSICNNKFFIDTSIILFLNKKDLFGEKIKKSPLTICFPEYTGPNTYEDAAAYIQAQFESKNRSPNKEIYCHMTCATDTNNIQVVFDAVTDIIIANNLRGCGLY
# Hit rate of the full screen: of about 220,000 compounds, about 770 (0.35%) were called active. The inconclusive results got no clear call from the source; some entries with a clear call stand among them for comparison. Cut-off read from the data, not from the text of the source: active = binding response below about 49% or above about 150%; inconclusive = no clear call, values can overlap the other calls; inactive = in between.
# Target: Guanine nucleotide-binding protein G(o) subunit alpha (Homo sapiens) (UniProt P09471)
# Assay: RGS7-Galphao binding modulators, primary screen, biochemical, multiplexed bead flow cytometry (AID 1439);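 note: fluorescent Galphao held in activated GDP-AlF4 state binding bead-coupled RGS7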
# Details: at 10 µM, actives lie on both sides
row,SMILES,binding response (% of control)
1,CS(=O)(=O)NCC(c1ccco1)N1CCN(c2ccc(F)cc2)CC1 (centres undefined),inactive: 101%
2,Cc1cccc(N2C(=O)C(O)=C(C(=O)c3cccs3)C2c2ccccc2)n1 (centres undefined),inconclusive: 157%
3,CCOc1cc(CNC(C)C)c(Cl)cc1OCC(=O)NCCc1ccccc1,inactive: 105%
4,CCOC(=O)c1cnc2c(c(C3CC3)nn2C)c1N1CCOCC1,inconclusive: 121%
5,CC(C)(C)S(=O)(=O)c1cnc(-c2ccccn2)nc1N,inconclusive: 150%
6,O=c1[nH]c2ccc(S(=O)(=O)N3CCN(c4ccc(F)cc4)CC3)cc2o1,inconclusive: 51.9%
7,COc1ccc(C(=O)Nc2ccc(N3CCN(C(=O)c4ccccc4)CC3)cc2)cc1[N+](=O)[O-],inconclusive: 93%
8,Cc1onc(-c2c(Cl)cccc2Cl)c1C(=O)NN1CCCCCC1,inconclusive: 156%
9,Cc1ccc(-n2c(SCC(=O)N/N=C/c3ccccc3C(=O)O)nnc2-c2ccc(Cl)cc2)cc1,inconclusive: 114%
10,Cc1cccc(NC(=O)CCCn2c(=S)[nH]c3ccccc3c2=O)c1,inactive: 106%
11,CSc1nc(SCC(=O)NCC2CCCO2)c2c3c(sc2n1)CN(C)CC3 (centres undefined),inconclusive: 56.5%
12,Cc1ccc(S(=O)(=O)NCC(=O)OCC(=O)NC(=O)NC2CCCC2)cc1,inconclusive: 105%
13,CCO[C@@H]1OC(C(N)=O)=C[C@H](c2cn(C(C)=O)c3ccccc23)[C@H]1CCCO,inactive: 101%
14,CN(C)c1ccncc1C(=O)Nc1ccc(F)cc1F,inconclusive: 90.7%
15,CC(C)(C)c1nnc(NC(=O)C2c3ccccc3Oc3ccccc32)s1,inconclusive: 85.9%
16,CNC(=S)N1N=C(c2ccc(Br)cc2)CC1c1ccc(Br)cc1 (centres undefined),inactive: 104%
17,CCC(CO)NCCNC(CC)CO (centres undefined),inactive: 61.1%
18,COc1ccc(-c2cc(CCCC(=O)NCCc3ccccc3)no2)cc1,inconclusive: 92.1%
19,O=c1[nH]c(SCc2ccccc2[N+](=O)[O-])nc2nc[nH]c12,inconclusive: -274%
20,Cc1ccn2c(c1)nc(=S)n2C(=O)c1ccco1,inactive: 105%
21,CCOC(=O)C1=C(c2ccccc2)N(C)C(=O)NC1c1ccc(OC(F)F)c(OC)c1 (centres undefined),inactive: 123%
22,O=c1onc(-c2cccnc2)n1-c1ccccc1F,inconclusive: 119%
23,Cc1cccc(S(=O)(=O)NCCC(=O)OC(C)C(=O)NC(=O)NC2CCCCC2)c1 (centres undefined),inactive: 98.8%

row,SMILES,binding response (% of control)
1,COc1cccc2cc(/C(=N/O)c3ccc(Br)cc3)oc12,inconclusive: 96.8%
2,Cc1occc1C(=O)N/N=C/C(Br)=C\c1ccccc1,inconclusive: 78.4%
3,CC(=O)Nc1ccc2c(c1)OCCOCCOc1cc(NC(C)=O)ccc1OCCO2,inconclusive: 113%
4,CCn1c(C)c(C(C)=O)cc(C#N)c1=O,inactive: 103%
5,O=C(Nc1ccc(F)cc1)NC1(C(=O)NCc2cccs2)CCCCC1,inactive: 104%
6,CS(=O)(=O)N1CCN(c2ccccc2NC(=O)c2cccs2)CC1,inactive: 98%
7,O=C(Cc1ccccc1)NNc1ccc2ccccc2c1,inconclusive: 91.6%
8,Cc1cc(C(=O)NC2Cc3ccccc3C2)c(C)o1,inconclusive: 98.2%
9,Cc1cccc(N2CN=C3SCC(=O)N3C2)c1,inconclusive: -13.8%
10,CN(C)/C=N/S(=O)(=O)c1ccc(Cl)c(Cl)c1,inconclusive: 145%
11,CCC1=C2CC[C@H]3C(=O)N(c4ccccc4)C(=O)[C@H]3[C@H]2[C@@]2(C)C(=NCc3ccccc3)OC(=O)N2C1=O,inconclusive: 107%
12,C=CCNC(=S)NNC(=O)c1ccc(C)c(Cl)c1,inconclusive: 96.1%
13,CCCCCCNC(=O)N[C@@H](C(=O)NCCC[C@H]1CN2C(=NC[C@@H]2Cc2ccccc2)N1CCc1cccc(OC)c1)C(C)C,inconclusive: 49.1%
14,Cc1nc(CS(=O)(=O)c2ccccn2)sc1C(=O)NNC(=O)c1ccccc1,inconclusive: 121%
15,Cc1ccc(OC(=O)C23CC4CC(CC(C4)C2)C3)c(C)n1,active: 152% [activator]
16,c1ccc(CCNc2nc(-c3ccncc3)nc3ccccc23)cc1,inconclusive: 113%
17,O=C(CSc1cccc2cccnc12)Nc1ccc(S(=O)(=O)N2CCOCC2)cc1,inconclusive: 223%
18,Cc1ccccc1-n1c([C@@H]2C[C@H]2c2ccccc2)n[nH]c1=S,inconclusive: 99%
19,CS(=O)(=O)N1CCN(c2ccccc2[N+](=O)[O-])CC1,inconclusive: 98.7%
20,COc1ccccc1NC(=O)Nc1nnc(CC(=O)Nc2cccc(C)c2)s1,inconclusive: 110%
21,NC(=O)CC(NC(=O)Cc1ccc(Br)cc1)c1ccc(NC2CCCC2)c([N+](=O)[O-])c1 (centres undefined),inconclusive: 98.5%
22,NNC(=O)c1ccc(N2CCCCCC2)c([N+](=O)[O-])c1,inactive: 97.5%
23,O=C(CN1C(=O)NC2NC(=O)NC21)N/N=C/c1ccccc1F (centres undefined),inactive: 96.1%

row,SMILES,binding response (% of control)
1,CCc1ccc(NC(=O)C2CCCN2S(=O)(=O)c2ccc3c(c2)n(C)c(=O)c(=O)n3C)cc1 (centres undefined),inconclusive: 92.2%
2,COc1ccc(C2C(C)C3(O)CC(C#N)(C(=O)N3)C2(C#N)C#N)cc1 (centres undefined),inconclusive: 93%
3,COc1ccc([N+](=O)[O-])c(OC)c1C(=O)NC(=O)Nc1nc(C)cc(C)n1,inconclusive: -14.4%
4,COc1ccc(CNC(=O)CN(c2cc(C)cc(C)c2)S(=O)(=O)c2c(C)noc2C)cc1,inactive: 106%
5,Cc1ccc(NC(=O)C(=Cc2ccc(C(=O)O)cc2)C(=O)Nc2ccc(C)cc2C)c(C)c1,inconclusive: 479%
6,CCCNC(=O)c1ccc2c(=O)n3c(-c4ccc(C)cc4)csc3nc2c1,inconclusive: 37.9%
7,Cc1ccc(C)c(-n2ccnc2SCC(N)=O)c1,inconclusive: 125%
8,COc1ccccc1OCC(=O)N1CC2(C)CC1CC(C)(C)C2 (centres undefined),inactive: 97.5%
9,O=C(O)Cn1cc(C(=S)N2CCCCC2)c2ccccc21,inconclusive: 131%
10,CCOC(=O)COc1ccc2c(=O)cc(-c3ccccc3)oc2c1,inconclusive: 306%
11,Cc1ccc(NC(=O)Nc2ccc3c(c2)C(=O)OC3)cc1Cl,inconclusive: 109%
12,CCN(CC)CCN1CNC(=S)N(c2ccccc2OC)C1,inconclusive: 162%
13,CN(/C=C/C(=C/C=[N+](C)c1ccccc1)OCCCS(=O)(=O)[O-])c1ccccc1,inactive: 100%
14,CCc1cc(C(=O)c2ccc(OC)cc2)c(NC(=O)CC(C)(C)CC(=O)O)s1,inconclusive: 94.2%
15,Cc1cc(C)nc(N2CCCC(C(=O)NCc3ccccc3F)C2)n1 (centres undefined),inactive: 101%
16,COC(=O)CSc1nnc(-c2ccco2)n1Cc1ccco1,inactive: 127%
17,O=C(Nc1ccccc1)N(C1=NCCC1)c1ccccc1,inconclusive: 57%
18,COc1nccc(C(F)(F)F)c1C(=O)NC(=O)Nc1c(C)cccc1C,inconclusive: 165%
19,O=C(Nc1cccc(C(F)(F)F)c1)Oc1ccccc1N1CCOCC1,inconclusive: 87.2%
20,O=C1CCCN1c1ncc(S(=O)(=O)c2ccc([N+](=O)[O-])cc2)s1,inconclusive: 121%
21,Cc1c(C)c(C)c(CO/N=C/c2cccs2)c(C)c1C,inconclusive: 83.8%
22,COc1ccc2cc(C)c3nnc(SCc4cccnc4)n3c2c1,inconclusive: 69.6%
23,CC(=O)c1ccc(OC(C)C)c(Cc2c(O)nc(N)[nH]c2=O)c1,inactive: 101%

row,SMILES,binding response (% of control)
1,O=C(NC1CC1)c1ccc2c(c1)NC(=O)c1ccccc1S2,active: 191% [activator]
2,COc1ccc2c(=O)c(Oc3ccc(C(=O)O)cc3)c(C(F)(F)F)oc2c1,inconclusive: 108%
3,CNC(=O)NC(=O)C(C)OC(=O)c1oc2ccccc2c1CSc1ccc(Cl)cc1 (centres undefined),inactive: 97.5%
4,Cc1cccn2c(=O)c(/C=C(\C#N)C(=O)NCc3ccccc3)c(N3CCC(C(N)=O)CC3)nc12,inconclusive: -645%
5,Cc1noc(C)c1-c1nc(CS(=O)(=O)c2ccccc2)no1,inconclusive: 103%
6,O=C(Nc1cc(Cl)cc(Cl)c1)c1coc(=O)c(Br)c1,inconclusive: 106%
7,O=C(O)c1ccc(S(=O)(=O)c2ccc3c(c2)C(=O)N(c2ccc(O)cc2)C3=O)cc1,inconclusive: 111%
8,N#Cc1ccc(C(=O)CSc2n[nH]c(=O)n2Cc2ccco2)cc1,inconclusive: 99.3%
9,Cc1cc(C)c([C@@H]2C[C@H]3CN(C4CCCC4)C(=O)[C@]34CCCN24)c(-n2cccn2)c1,inconclusive: 23.2%
10,Cc1cccnc1NC(N)=S,inconclusive: 96%
11,Cc1cc(C)c(S(=O)(=O)NCC(=O)NCc2ccccn2)c(C)c1,inactive: 98.5%
12,Cc1cc(N2CCN(C)CC2)nc2ccc(NC(=S)NC3CC3)cc12,inconclusive: 108%
13,CCOC(=O)c1[nH]c(C(=O)O)c(OC(=O)CC)c1C,inconclusive: 89%
14,COc1ccc(NS(=O)(=O)c2ccc(/C=C/C(=O)O)cc2)cc1S(=O)(=O)N1CCOCC1,inconclusive: 80.4%
15,COC(=O)C(=C/C=C/N1CCOCC1)C(=O)OC,inconclusive: 110%
16,CCCCNC(=O)CCn1c(=O)c2ccccc2n(Cc2ccc(Cl)cc2)c1=O,inactive: 98.2%
17,O=C(NNC(=O)c1cnccc1C(F)(F)F)c1ccccc1,inconclusive: 135%
18,CCc1cccc(C)c1NC(=O)C1CCCO1 (centres undefined),inactive: 112%
19,O=C(CCCCCN1C(=O)c2ccccc2C1=O)Oc1ccc2c3c(c(=O)oc2c1)CCC3,inactive: 94.3%
20,Cc1cc(C)c(C#N)c(Oc2ccccc2Br)n1,inconclusive: 115%

# Three structures already listed, ordered by number of heavy atoms, ascending:
row,SMILES,binding response (% of control)
13,CCOC(=O)c1[nH]c(C(=O)O)c(OC(=O)CC)c1C,inconclusive: 89%
17,O=C(NNC(=O)c1cnccc1C(F)(F)F)c1ccccc1,inconclusive: 135%
2,COc1ccc2c(=O)c(Oc3ccc(C(=O)O)cc3)c(C(F)(F)F)oc2c1,inconclusive: 108%
